Here are results for 24 compounds from the supplement of paper PMC4604168 (melanoma cell lines).

The other results are listed elsewhere or left out. Single values are uncertain, as repeats are few or missing.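 Imaging used 1,536-well plates; nuclei positive for cleaved PARP by antibody were divided by total DNA-stained nuclei to yield the apoptosis fraction. Doses for screening kept most cells viable, and cell lines differ markedly in resting and induced cleaved-PARP levels.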

Some test systems named below: WM115; WM1716; WM1745; WM3526; WM3619; WM451Lu.
What all share (test): cleaved PARP positive nuclei fraction relative to DMSO control; melanoma cells; higher = more apoptosis
Holding throughout (details): library dose: low library concentration; 72 h

Consider `Cn1sc(=O)n(Cc2ccccc2)c1=O` + Nc1cccc2c1CN(C1CCC(=O)NC1=O)C2=O [lenalidomide] (first compound 0.4 µM, partner dose 1 µM), for which the “cleaved PARP positive nuclei fraction” value turned out to be 68.2% with WM115; 45.6% in the test on WM1716; 87.5% in the test with WM1745; 44.9% in the test on WM3526; 81.7% in the test with WM3619; 38.7% with WM451Lu.

As to `C[C@@H](N)c1ccc(C(=O)Nc2ccnc3[nH]ccc23)cc1` + Nc1ccn([C@@H]2O[C@H](CO)[C@@H](O)C2(F)F)c(=O)n1 [gemcitabine] (first compound 0.4 µM, partner dose 0.0004 µM), the “cleaved PARP positive nuclei fraction” value with WM115 was 73.3%; in the test on WM1716 it was 48.1%; in the test with WM1745 it was 131%; in the test with WM3526, 70.7%; with WM3619 it was 126%; in the test on WM451Lu, 74.2%.

Regarding `CC1(C)CCC(c2ccc(Cl)cc2)=C(CN2CCN(c3ccc(C(=O)NS(=O)(=O)c4ccc(N[C@H](CCN5CCOCC5)CSc5ccccc5)c(S(=O)(=O)C(F)(F)F)c4)cc3)CC2)C1` + CCN(CC)CCCCNc1ncc2cc(-c3cc(OC)cc(OC)c3)c(NC(=O)NC(C)(C)C)nc2n1 [PD173074] (first compound 0.4 µM, partner dose 0.1 µM), the “cleaved PARP positive nuclei fraction” value in the test with WM115 worked out at 380%; in the test on WM1716, 109%; with WM1745, 811%; with WM3526, 41.9%; in the test with WM3619 it was 122%; in the test with WM451Lu it was 168%.

On to `C[C@]1(O)C[C@@H](c2nc(-c3ccc4ccc(-c5ccccc5)nc4c3)c3c(N)nccn32)C1` + OCCn1cc(-c2cnc3nnn(Cc4ccc5ncccc5c4)c3n2)cn1 [PF04217903] (first compound 0.4 µM, partner dose 1 µM), for which the “cleaved PARP positive nuclei fraction” value in the test with WM115 came out at 137%; in the test on WM1716, 145%; in the test on WM1745 it was 124%; with WM3526 it was 43.4%; in the test with WM3619, 145%; with WM451Lu, 31.7%.

With `CS(=O)(=O)c1ccc(C(=O)Nc2ccc(Cl)c(-c3ccccn3)c2)c(Cl)c1` [vismodegib] + Cc1cc(Nc2cc(N3CCN(C)CC3)nc(/C=C/c3ccccc3)n2)n[nH]1 [ENMD2076] (first compound 1 µM, partner dose 0.04 µM), the “cleaved PARP positive nuclei fraction” value with WM115 came out at 114%; in the test on WM1716, 34.1%; with WM1745, 153%; with WM3526 it was 25.5%; in the test with WM3619, 102%; in the test on WM451Lu it was 48.1%.

In the case of `CS(=O)(=O)c1ccc(C(=O)Nc2ccc(Cl)c(-c3ccccn3)c2)c(Cl)c1` [vismodegib] + Cn1cc(/C=C2\C(=O)Nc3cccnc32)c2ccccc21 [GW441756] (first compound 1 µM, partner dose 0.4 µM), the “cleaved PARP positive nuclei fraction” value stood at 57% in the test on WM115; 95.8% in the test on WM1716; 71.2% in the test on WM1745; 66.8% with WM3526; 85.2% with WM3619; 30.1% in the test on WM451Lu.

With `Cn1cnc2c(F)c(Nc3ccc(Br)cc3Cl)c(C(=O)NOCCO)cc21` [selumetinib] + CS(=O)(=O)CCNCc1ccc(-c2ccc3ncnc(Nc4ccc(OCc5cccc(F)c5)c(Cl)c4)c3c2)o1 [lapatinib] (first compound 0.015 µM, partner dose 0.8 µM), the “cleaved PARP positive nuclei fraction” value with WM115 amounted to 177%; in the test on WM1716, 57.7%; with WM1745 it was 90.6%; in the test on WM3526 it was 158%; in the test with WM3619 it was 148%; in the test on WM451Lu, 55.5%.

Regarding `NC1(c2ccc(-c3nc4ccn5c(=O)[nH]nc5c4cc3-c3ccccc3)cc2)CCC1` + CCCS(=O)(=O)Nc1ccc(F)c(C(=O)c2c[nH]c3ncc(Cl)cc23)c1F [PLX4720] (first compound 0.4 µM, partner dose 0.08 µM), the “cleaved PARP positive nuclei fraction” value turned out to be 362% in the test on WM115; 75.5% in the test on WM1716; 102% in the test with WM1745; 134% in the test with WM3526; 162% in the test on WM3619; 359% with WM451Lu.

With `C[C@]1(O)C[C@@H](c2nc(-c3ccc4ccc(-c5ccccc5)nc4c3)c3c(N)nccn32)C1` + CCc1ccc(CCOc2ccc(CC3SC(=O)NC3=O)cc2)nc1 [pioglitazone] (first compound 0.4 µM, partner dose 2 µM), the “cleaved PARP positive nuclei fraction” value was determined as 113% in the test with WM115; 51.3% with WM1716; 115% in the test with WM1745; 185% with WM3526; 112% with WM3619; 71.7% in the test on WM451Lu.

In the case of `Cn1sc(=O)n(Cc2ccccc2)c1=O` + Oc1cc(-c2nc(-c3ccccc3)[nH]c2-c2ccncc2)ccc1Cl [L779450] (first compound 0.4 µM, partner dose 0.2 µM), the “cleaved PARP positive nuclei fraction” value in the test with WM115 worked out at 101%; in the test on WM1716 it was 75%; with WM1745, 84.8%; with WM3526, 80.8%; with WM3619, 96.2%; with WM451Lu, 97.8%.

For `CCN(CC)CCNC(=O)c1c(C)[nH]c(/C=C2\C(=O)Nc3ccc(F)cc32)c1C` [sunitinib] + COC(=O)c1sccc1S(=O)(=O)Nc1ccc(Nc2ccccc2)cc1OC [GSK0660] (first compound 0.4 µM, partner dose 1 µM), the “cleaved PARP positive nuclei fraction” value in the test with WM115 came to 68.7%; with WM1716, 39%; in the test on WM1745 it was 106%; in the test on WM3526, 79.2%; in the test on WM3619, 65%; in the test on WM451Lu, 36%.

With `NC1(c2ccc(-c3nc4ccn5c(=O)[nH]nc5c4cc3-c3ccccc3)cc2)CCC1` + CC(C)(C)c1cnc(CSc2cnc(NC(=O)C3CCNCC3)s2)o1 [SNS-032] (first compound 0.4 µM, partner dose 0.01 µM), the “cleaved PARP positive nuclei fraction” value worked out at 342% in the test on WM115; 98.1% with WM1716; 102% with WM1745; 75.3% in the test on WM3526; 99.4% with WM3619; 71.3% with WM451Lu.

With `C[C@]1(O)C[C@@H](c2nc(-c3ccc4ccc(-c5ccccc5)nc4c3)c3c(N)nccn32)C1` + CCCCCCCCCCCC1=C(O)C(=O)C=C(O)C1=O [Embelin] (first compound 0.4 µM, partner dose 1.2 µM), the “cleaved PARP positive nuclei fraction” value with WM115 was 55.8%; in the test with WM1716 it was 138%; with WM1745, 116%; in the test on WM3526 it was 90.6%; in the test on WM3619, 78%; in the test on WM451Lu, 227%.

As for `C[C@]1(O)C[C@@H](c2nc(-c3ccc4ccc(-c5ccccc5)nc4c3)c3c(N)nccn32)C1` + C=C(c1ccc(C(=O)O)cc1)c1cc2c(cc1C)C(C)(C)CCC2(C)C [Bexarotene] (first compound 0.4 µM, partner dose 2 µM), the “cleaved PARP positive nuclei fraction” value in the test on WM115 was 39.1%; in the test on WM1716, 40.1%; in the test on WM1745, 149%; in the test with WM3526 it was 212%; with WM3619, 105%; with WM451Lu, 86.8%.

In the case of `CC(=O)O[C@@]12CO[C@@H]1C[C@H](O)[C@@]1(C)C(=O)[C@H](O)C3=C(C)[C@@H](OC(=O)[C@H](O)[C@@H](NC(=O)OC(C)(C)C)c4ccccc4)C[C@@](O)([C@@H](OC(=O)c4ccccc4)[C@H]21)C3(C)C` [Docetaxel] + CC(C)(C)c1cnc(CSc2cnc(NC(=O)C3CCNCC3)s2)o1 [SNS-032] (first compound 0.0001 µM, partner dose 0.01 µM), the “cleaved PARP positive nuclei fraction” value stood at 416% in the test on WM115; 615% in the test with WM1716; 165% in the test on WM1745; 148% in the test with WM3526; 119% in the test on WM3619; 720% with WM451Lu.

In the case of `Cn1cnc2c(F)c(Nc3ccc(Br)cc3Cl)c(C(=O)NOCCO)cc21` [selumetinib] + COc1cc2c(Oc3ccc4[nH]c(C)cc4c3F)ncnc2cc1OCCCN1CCCC1 [cediranib] (first compound 0.015 µM, partner dose 0.4 µM), the “cleaved PARP positive nuclei fraction” value in the test on WM115 turned out to be 144%; in the test with WM1716, 22.6%; in the test on WM1745 it was 130%; in the test with WM3526 it was 82.1%; with WM3619 it was 97.6%; in the test with WM451Lu, 60.1%.

Turning to `Cn1sc(=O)n(Cc2ccccc2)c1=O` + O=C(Nc1ccccc1)c1cc([N+](=O)[O-])ccc1Cl [GW9662] (first compound 0.4 µM, partner dose 2 µM), the “cleaved PARP positive nuclei fraction” value with WM115 came to 147%; in the test on WM1716, 80%; in the test on WM1745, 88.3%; in the test with WM3526, 75%; with WM3619, 106%; in the test on WM451Lu, 183%.

In the case of `C[C@@H](N)c1ccc(C(=O)Nc2ccnc3[nH]ccc23)cc1` + O=C(CCCCCCC(=O)Nc1ccccc1)NO [vorinostat] (first compound 0.4 µM, partner dose 0.08 µM), the “cleaved PARP positive nuclei fraction” value in the test on WM115 was found to be 41.2%; in the test on WM1716, 343%; in the test with WM1745 it was 92.4%; with WM3526, 35.5%; in the test with WM3619, 103%; in the test with WM451Lu, 272%.

Turning to `C[C@@H](N)c1ccc(C(=O)Nc2ccnc3[nH]ccc23)cc1` + Cc1cc(Nc2cc(N3CCN(C)CC3)nc(/C=C/c3ccccc3)n2)n[nH]1 [ENMD2076] (first compound 0.4 µM, partner dose 0.04 µM), the “cleaved PARP positive nuclei fraction” value stood at 29.8% with WM115; 52.9% with WM1716; 153% with WM1745; 73% in the test on WM3526; 96.3% in the test with WM3619; 242% with WM451Lu.

Regarding `CCN(CC)CCNC(=O)c1c(C)[nH]c(/C=C2\C(=O)Nc3ccc(F)cc32)c1C` [sunitinib] + NCC(=O)Nc1ccc(-n2nc(C(F)(F)F)cc2-c2ccc3c(ccc4ccccc43)c2)cc1 [OSU03012] (first compound 0.4 µM, partner dose 1 µM), the “cleaved PARP positive nuclei fraction” value turned out to be 58.9% with WM115; 53.2% in the test on WM1716; 123% in the test with WM1745; 132% in the test on WM3526; 101% in the test with WM3619; 161% in the test with WM451Lu.

Consider `C[C@]1(O)C[C@@H](c2nc(-c3ccc4ccc(-c5ccccc5)nc4c3)c3c(N)nccn32)C1` + COc1cc2ncnc(Nc3ccc(Oc4ccccc4)cc3)c2cc1OC [SrcI1] (first compound 0.4 µM, partner dose 2 µM), for which the “cleaved PARP positive nuclei fraction” value amounted to 142% in the test with WM115; 20.3% in the test with WM1716; 130% in the test with WM1745; 173% in the test with WM3526; 101% with WM3619; 30.6% in the test with WM451Lu.

In the case of `CCCCCCCCc1ccc(CCC(N)(CO)CO)cc1` [fingolimod] + Clc1ccc(Nc2nnc(Cc3ccncc3)c3ccccc23)cc1 [vatalanib] (first compound 2 µM, partner dose 2 µM), the “cleaved PARP positive nuclei fraction” value was 95.3% with WM115; 40.8% in the test with WM1716; 127% in the test on WM1745; 47.2% with WM3526; 107% in the test on WM3619; 62.8% in the test with WM451Lu.

For the compound `C[C@@H](N)c1ccc(C(=O)Nc2ccnc3[nH]ccc23)cc1` + O=C(Nc1ccccc1)c1cc([N+](=O)[O-])ccc1Cl [GW9662] (first compound 0.4 µM, partner dose 2 µM), the “cleaved PARP positive nuclei fraction” value with WM115 was 37.3%; with WM1716, 51.8%; in the test on WM1745, 99.2%; in the test with WM3526, 169%; with WM3619 it was 78.1%; in the test on WM451Lu, 104%.

Consider `CC1(C)CCC(c2ccc(Cl)cc2)=C(CN2CCN(c3ccc(C(=O)NS(=O)(=O)c4ccc(N[C@H](CCN5CCOCC5)CSc5ccccc5)c(S(=O)(=O)C(F)(F)F)c4)cc3)CC2)C1` + CCCCCCCCCCCC1=C(O)C(=O)C=C(O)C1=O [Embelin] (first compound 0.4 µM, partner dose 1.2 µM), for which the “cleaved PARP positive nuclei fraction” value is 312% in the test with WM115; 809% in the test with WM1716; 587% in the test with WM1745; 99.3% with WM3526; 105% with WM3619; 70.3% in the test on WM451Lu.
